Data as given in article PMC7192421.
These are yes or no findings as the source states them, for the method shown. Binding seen in cells or lysates may run through a third protein. Some binding calls cover weakened binding; strength is not graded here. Tags and fused reporters may be left off the sequences shown.

Sequences of proteins named here, by UniProt entry; tags and fusion partners are left off.
UniProt P61586: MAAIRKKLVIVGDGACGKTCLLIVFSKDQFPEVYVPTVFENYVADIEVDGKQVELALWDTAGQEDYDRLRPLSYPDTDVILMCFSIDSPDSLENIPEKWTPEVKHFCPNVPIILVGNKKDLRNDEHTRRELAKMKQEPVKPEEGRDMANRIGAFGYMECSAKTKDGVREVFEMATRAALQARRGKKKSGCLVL

Molecular target: GST-RhoA (UniProt P61586)
Assay: pull-down; GST-RhoA or GST as bait (seen by Coomassie staining); Myc-tagged Daam1 proteins made by in vitro transcription/translation, detected with anti-Myc antibody; done as in ref. 46; only the target purified

- binding: binds
B1: Daam1 Δ (mouse Daam1 a.a. 1-148, Myc-tagged) (domain or fragment, UniProt Q8BPM0 1-148)
chain: MAPRKRGGRGISFIFCCFRNNDHPEITYRLRNDSNFALQTMEPALPMPPVEELDVMFSELVDELDLTDKHREAMFALPAEKKWQIYCSKKKDQEENKGATSWPEFYIDQLNSMAARKSLLALEKEEEEERSKTIESLKTALRTKPMRF
